Consider one substance from publication PMC6021247.

Results are given in words; binding and its absence hold for the method and conditions named. In cells and extracts the contact can be indirect. Where a sequence is shown, tags or fusion partners need not be part of it.

The assay concerns the target T1, rabbit APOBEC1 fused to GFP (rA1-GFP) (rabbit) (UniProt P47855).
T1 sequence: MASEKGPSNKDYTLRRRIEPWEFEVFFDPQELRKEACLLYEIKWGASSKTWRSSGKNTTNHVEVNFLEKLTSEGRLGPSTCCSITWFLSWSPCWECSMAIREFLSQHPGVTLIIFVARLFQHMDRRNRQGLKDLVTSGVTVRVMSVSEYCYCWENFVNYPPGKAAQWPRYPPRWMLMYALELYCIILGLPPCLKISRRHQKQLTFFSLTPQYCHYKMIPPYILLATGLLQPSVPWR
As to the kind of experiment: FRET or BRET; flow cytometry-based FRET (FRET-FACS); HEK-293T cells 48 hours after co-transfection of a Cherry-fusion and a GFP-fusion plasmid; percentage of FRET+ cells gated on Cherry+ and GFP+ cells. (In general: In BRET a luciferase serves as donor, and the signal depends on an acceptor being close.)

As to “rabbit APOBEC3A fused to Cherry (rA3A-Cherry) (enzyme)”, the binding entry is given as “no binding”.
